Laboratory results as given in paper PMC4405695.
Numbering of substitutions follows the chain as printed. In names and notes the source's numbering stands. These are yes or no findings as the source states them, for the method shown. In cells and extracts the contact can be indirect. Some entries that bind do so weakly or less than the wild type. For some of these results: Tags and fused reporters may be left off the sequences shown.

Protein sequences, listed by entry. Tags and fused reporters are not part of them. Lines headed by an entry give the natural chain unless they say otherwise; changes in a name come on top.
UniProt P20340: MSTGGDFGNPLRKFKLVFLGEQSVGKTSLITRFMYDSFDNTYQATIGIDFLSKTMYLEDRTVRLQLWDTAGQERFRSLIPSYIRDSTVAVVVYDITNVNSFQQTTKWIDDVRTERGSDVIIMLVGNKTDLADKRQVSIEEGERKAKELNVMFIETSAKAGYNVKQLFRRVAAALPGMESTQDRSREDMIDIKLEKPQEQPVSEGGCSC
UniProt P20339: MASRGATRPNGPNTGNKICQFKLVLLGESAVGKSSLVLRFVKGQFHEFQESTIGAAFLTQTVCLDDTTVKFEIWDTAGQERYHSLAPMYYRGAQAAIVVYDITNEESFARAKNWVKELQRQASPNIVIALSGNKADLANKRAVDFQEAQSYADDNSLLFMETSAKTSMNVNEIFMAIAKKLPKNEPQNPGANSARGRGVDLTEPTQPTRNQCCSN

Columns and labels:
GFP-Rab6A = GFP-Rab6A (UniProt P20340); assay: co-IP; HEK293 cells transfected 48 hr; lysis in 50 mM Hepes pH 7.4, 150 mM NaCl, 1% CHAPS; llama GFP-binding protein on Sepharose; immunoblot with anti-myc or anti-Rab6A
GST-Rab6A Q72L [1] = biological target: GST-Rab6A Q72L (UniProt P20340); assay: pull-down; data not shown; KIF1C constructs with GST-Rab6A; only the target purified
GST-Rab6A Q72L [2] = biological target: GST-Rab6A Q72L (UniProt P20340); assay: pull-down; in vitro translated myc-KIF1C constructs (optimally 11.25 nM) with GTPγS-loaded GST-Rabs (0.2-5 μM), Buffer A plus 1 mM DTT, 1 hr 25°C, glutathione-Sepharose, washes with 400 mM NaCl; anti-myc immunoblot; only the target purified
His-Rab6A = His-Rab6A (UniProt P20340); assay: co-sedimentation; desalted in vitro synthesized 35S-myc-KIF1C with GTPγS-preloaded His-Rabs (4.2 μM), then 0.8 µg/µl Paclitaxel stabilized microtubules, 2.5 mM ADP, 0.5 mM GTPγS; 10% sucrose cushion; scintillation counting; only the target purified
GST-Rab5A Q79L = GST-Rab5A Q79L (UniProt P20339); assay: pull-down; in vitro translated myc-KIF1C constructs (optimally 11.25 nM) with GTPγS-loaded GST-Rabs (0.2-5 μM), Buffer A plus 1 mM DTT, 1 hr 25°C, glutathione-Sepharose, washes with 400 mM NaCl; anti-myc immunoblot; only the target purified
GST-Rab9A = biological target: T1, GST-Rab9A (UniProt P51151); assay: as above
T1 sequence: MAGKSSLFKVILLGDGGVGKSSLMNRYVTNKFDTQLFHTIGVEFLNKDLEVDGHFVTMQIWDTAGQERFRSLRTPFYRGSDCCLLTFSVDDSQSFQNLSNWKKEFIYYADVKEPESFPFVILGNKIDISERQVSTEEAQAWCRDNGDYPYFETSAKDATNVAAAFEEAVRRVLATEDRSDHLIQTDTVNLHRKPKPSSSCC

B1: full-length myc-KIF1C (protein, UniProt O43896 1-1103)
chain: MAGASVKVAVRVRPFNARETSQDAKCVVSMQGNTTSIINPKQSKDAPKSFTFDYSYWSHTSTEDPQFASQQQVYRDIGEEMLLHAFEGYNVCIFAYGQTGAGKSYTMMGRQEPGQQGIVPQLCEDLFSRVSENQSAQLSYSVEVSYMEIYCERVRDLLNPKSRGSLRVREHPILGPYVQDLSKLAVTSYADIADLMDCGNKARTVAATNMNETSSRSHAVFTIVFTQRCHDQLTGLDSEKVSKISLVDLAGSERADSSGARGMRLKEGANINKSLTTLGKVISALADMQSKKRKSDFIPYRDSVLTWLLKENLGGNSRTAMIAALSPADINYEETLSTLRYADRTKQIRCNAIINEDPNARLIRELQEEVARLRELLMAQGLSASALEGLKTEEGSVRGALPAVSSPPAPVSPSSPTTHNGELEPSFSPNTESQIGPEEAMERLQETEKIIAELNETWEEKLRKTEALRMEREALLAEMGVAVREDGGTVGVFSPKKTPHLVNLNEDPLMSECLLYHIKDGVTRVGQVDMDIKLTGQFIREQHCLFRSIPQPDGEVVVTLEPCEGAETYVNGKLVTEPLVLKSGNRIVMGKNHVFRFNHPEQARLERERGVPPPPGPPSEPVDWNFAQKELLEQQGIDIKLEMEKRLQDLENQYRKEKEEADLLLEQQRLYADSDSGDDSDKRSCEESWRLISSLREQLPPTTVQTIVKRCGLPSSGKRRAPRRVYQIPQRRRLQGKDPRWATMADLKMQAVKEICYEVALADFRHGRAEIEALAALKMRELCRTYGKPDGPGDAWRAVARDVWDTVGEEEGGGAGSGGGSEEGARGAEVEDLRAHIDKLTGILQEVKLQNSSKDRELQALRDRMLRMERVIPLAQDHEDENEEGGEVPWAPPEGSEAAEEAAPSDRMPSARPPSPPLSSWERVSRLMEEDPAFRRGRLRWLKQEQLRLQGLQGSGGRGGGLRRPPARFVPPHDCKLRFPFKSNPQHRESWPGMGSGEAPTPLQPPEEVTPHPATPARRPPSPRRSHHPRRNSLDGGGRSRGAGSAQPEPQHFQPKKHNSYPQPPQPYPAQRPPGPRYPPYTTPPRMRRQRSAPDLKESGAAV
With B1 the binding (GFP-Rab6A) was “binds”.

B2: KIF1C construct containing the first 500 amino acid residues (domain or fragment, UniProt O43896 1-500)
chain: MAGASVKVAVRVRPFNARETSQDAKCVVSMQGNTTSIINPKQSKDAPKSFTFDYSYWSHTSTEDPQFASQQQVYRDIGEEMLLHAFEGYNVCIFAYGQTGAGKSYTMMGRQEPGQQGIVPQLCEDLFSRVSENQSAQLSYSVEVSYMEIYCERVRDLLNPKSRGSLRVREHPILGPYVQDLSKLAVTSYADIADLMDCGNKARTVAATNMNETSSRSHAVFTIVFTQRCHDQLTGLDSEKVSKISLVDLAGSERADSSGARGMRLKEGANINKSLTTLGKVISALADMQSKKRKSDFIPYRDSVLTWLLKENLGGNSRTAMIAALSPADINYEETLSTLRYADRTKQIRCNAIINEDPNARLIRELQEEVARLRELLMAQGLSASALEGLKTEEGSVRGALPAVSSPPAPVSPSSPTTHNGELEPSFSPNTESQIGPEEAMERLQETEKIIAELNETWEEKLRKTEALRMEREALLAEMGVAVREDGGTVGVFSPKKTPH
In the case of B2, the binding (GST-Rab6A Q72L [1]) is reported as “binds”.

B3: KIF1C construct containing the first 400 amino acid residues (domain or fragment, UniProt O43896 1-400)
chain: MAGASVKVAVRVRPFNARETSQDAKCVVSMQGNTTSIINPKQSKDAPKSFTFDYSYWSHTSTEDPQFASQQQVYRDIGEEMLLHAFEGYNVCIFAYGQTGAGKSYTMMGRQEPGQQGIVPQLCEDLFSRVSENQSAQLSYSVEVSYMEIYCERVRDLLNPKSRGSLRVREHPILGPYVQDLSKLAVTSYADIADLMDCGNKARTVAATNMNETSSRSHAVFTIVFTQRCHDQLTGLDSEKVSKISLVDLAGSERADSSGARGMRLKEGANINKSLTTLGKVISALADMQSKKRKSDFIPYRDSVLTWLLKENLGGNSRTAMIAALSPADINYEETLSTLRYADRTKQIRCNAIINEDPNARLIRELQEEVARLRELLMAQGLSASALEGLKTEEGSVRGA
With B3 the binding (GST-Rab6A Q72L [1]) was “binds”.

B4: myc-KIF1C-350 K103A (domain or fragment, UniProt O43896 1-350)
chain: MAGASVKVAVRVRPFNARETSQDAKCVVSMQGNTTSIINPKQSKDAPKSFTFDYSYWSHTSTEDPQFASQQQVYRDIGEEMLLHAFEGYNVCIFAYGQTGAGASYTMMGRQEPGQQGIVPQLCEDLFSRVSENQSAQLSYSVEVSYMEIYCERVRDLLNPKSRGSLRVREHPILGPYVQDLSKLAVTSYADIADLMDCGNKARTVAATNMNETSSRSHAVFTIVFTQRCHDQLTGLDSEKVSKISLVDLAGSERADSSGARGMRLKEGANINKSLTTLGKVISALADMQSKKRKSDFIPYRDSVLTWLLKENLGGNSRTAMIAALSPADINYEETLSTLRYADRTKQIRC
For B4, the binding (GST-Rab6A Q72L [2]) was “binds”.

B5: in vitro synthesized 35S-myc-KIF1C (protein, UniProt O43896 1-1103)
chain: B1 chain
modifications: 35S-methionine
B5 was tested, and the binding (His-Rab6A) was “binds”.

B6: myc-KIF1CΔCBD (domain or fragment, UniProt O43896 1-1060)
chain: MAGASVKVAVRVRPFNARETSQDAKCVVSMQGNTTSIINPKQSKDAPKSFTFDYSYWSHTSTEDPQFASQQQVYRDIGEEMLLHAFEGYNVCIFAYGQTGAGKSYTMMGRQEPGQQGIVPQLCEDLFSRVSENQSAQLSYSVEVSYMEIYCERVRDLLNPKSRGSLRVREHPILGPYVQDLSKLAVTSYADIADLMDCGNKARTVAATNMNETSSRSHAVFTIVFTQRCHDQLTGLDSEKVSKISLVDLAGSERADSSGARGMRLKEGANINKSLTTLGKVISALADMQSKKRKSDFIPYRDSVLTWLLKENLGGNSRTAMIAALSPADINYEETLSTLRYADRTKQIRCNAIINEDPNARLIRELQEEVARLRELLMAQGLSASALEGLKTEEGSVRGALPAVSSPPAPVSPSSPTTHNGELEPSFSPNTESQIGPEEAMERLQETEKIIAELNETWEEKLRKTEALRMEREALLAEMGVAVREDGGTVGVFSPKKTPHLVNLNEDPLMSECLLYHIKDGVTRVGQVDMDIKLTGQFIREQHCLFRSIPQPDGEVVVTLEPCEGAETYVNGKLVTEPLVLKSGNRIVMGKNHVFRFNHPEQARLERERGVPPPPGPPSEPVDWNFAQKELLEQQGIDIKLEMEKRLQDLENQYRKEKEEADLLLEQQRLYADSDSGDDSDKRSCEESWRLISSLREQLPPTTVQTIVKRCGLPSSGKRRAPRRVYQIPQRRRLQGKDPRWATMADLKMQAVKEICYEVALADFRHGRAEIEALAALKMRELCRTYGKPDGPGDAWRAVARDVWDTVGEEEGGGAGSGGGSEEGARGAEVEDLRAHIDKLTGILQEVKLQNSSKDRELQALRDRMLRMERVIPLAQDHEDENEEGGEVPWAPPEGSEAAEEAAPSDRMPSARPPSPPLSSWERVSRLMEEDPAFRRGRLRWLKQEQLRLQGLQGSGGRGGGLRRPPARFVPPHDCKLRFPFKSNPQHRESWPGMGSGEAPTPLQPPEEVTPHPATPARRPPSPRRSHHPRRNSLDGGGRSRGAGSAQPEPQHFQPKKHNS
In the case of B6, the binding (GST-Rab6A Q72L [2]) is reported as “binds”.

B7: myc-KIF1C-350 (domain or fragment, UniProt O43896 1-350)
chain: B4 chain with A103K
For B7, the binding (GST-Rab5A Q79L) was “no binding (tested: 5 μM)”, the binding (GST-Rab9A) was “no binding (tested: 5 μM)” and the binding (GST-Rab6A Q72L [2]) was “binds”.

B8: myc-KIF1C ΔmotorΔCBD (domain or fragment, UniProt O43896 450-1060)
chain: IIAELNETWEEKLRKTEALRMEREALLAEMGVAVREDGGTVGVFSPKKTPHLVNLNEDPLMSECLLYHIKDGVTRVGQVDMDIKLTGQFIREQHCLFRSIPQPDGEVVVTLEPCEGAETYVNGKLVTEPLVLKSGNRIVMGKNHVFRFNHPEQARLERERGVPPPPGPPSEPVDWNFAQKELLEQQGIDIKLEMEKRLQDLENQYRKEKEEADLLLEQQRLYADSDSGDDSDKRSCEESWRLISSLREQLPPTTVQTIVKRCGLPSSGKRRAPRRVYQIPQRRRLQGKDPRWATMADLKMQAVKEICYEVALADFRHGRAEIEALAALKMRELCRTYGKPDGPGDAWRAVARDVWDTVGEEEGGGAGSGGGSEEGARGAEVEDLRAHIDKLTGILQEVKLQNSSKDRELQALRDRMLRMERVIPLAQDHEDENEEGGEVPWAPPEGSEAAEEAAPSDRMPSARPPSPPLSSWERVSRLMEEDPAFRRGRLRWLKQEQLRLQGLQGSGGRGGGLRRPPARFVPPHDCKLRFPFKSNPQHRESWPGMGSGEAPTPLQPPEEVTPHPATPARRPPSPRRSHHPRRNSLDGGGRSRGAGSAQPEPQHFQPKKHNS
For B8, the binding (GST-Rab6A Q72L [2]) was “no binding (tested: 0.2 μM GST-Rab6A Q72L)”.
